Some of the results follow. Most values lie at the level of the controls, where differences are scatter.
Compound: CC1(C)S[C@@H]2[C@H](NC(=O)[C@H](N)c3ccccc3)C(=O)N2[C@H]1C(=O)O [ampicillin]
Experiment: log2 fold change of tryptic peptide abundance, ligand vs vehicle (limited proteolysis) (log2 ratio); higher = more trypsin-susceptible (destabilized)
Details: ligand concentration: 10 uM; sample: E. coli crude lysate

Chains of the proteins cited; added tags and fusions are not shown. Lines headed by an entry give the natural chain unless they say otherwise; changes in a name come on top.
UniProt P37326: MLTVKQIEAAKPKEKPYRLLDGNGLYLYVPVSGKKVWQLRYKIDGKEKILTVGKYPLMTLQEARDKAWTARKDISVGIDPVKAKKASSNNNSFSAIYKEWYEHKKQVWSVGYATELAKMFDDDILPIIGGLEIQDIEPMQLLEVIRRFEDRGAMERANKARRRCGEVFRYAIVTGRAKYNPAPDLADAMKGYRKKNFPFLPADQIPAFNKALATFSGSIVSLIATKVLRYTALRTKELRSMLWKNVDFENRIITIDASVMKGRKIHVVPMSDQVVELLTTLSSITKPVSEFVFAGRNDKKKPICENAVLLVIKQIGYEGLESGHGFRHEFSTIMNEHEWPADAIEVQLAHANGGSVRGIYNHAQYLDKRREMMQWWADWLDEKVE
UniProt P37127: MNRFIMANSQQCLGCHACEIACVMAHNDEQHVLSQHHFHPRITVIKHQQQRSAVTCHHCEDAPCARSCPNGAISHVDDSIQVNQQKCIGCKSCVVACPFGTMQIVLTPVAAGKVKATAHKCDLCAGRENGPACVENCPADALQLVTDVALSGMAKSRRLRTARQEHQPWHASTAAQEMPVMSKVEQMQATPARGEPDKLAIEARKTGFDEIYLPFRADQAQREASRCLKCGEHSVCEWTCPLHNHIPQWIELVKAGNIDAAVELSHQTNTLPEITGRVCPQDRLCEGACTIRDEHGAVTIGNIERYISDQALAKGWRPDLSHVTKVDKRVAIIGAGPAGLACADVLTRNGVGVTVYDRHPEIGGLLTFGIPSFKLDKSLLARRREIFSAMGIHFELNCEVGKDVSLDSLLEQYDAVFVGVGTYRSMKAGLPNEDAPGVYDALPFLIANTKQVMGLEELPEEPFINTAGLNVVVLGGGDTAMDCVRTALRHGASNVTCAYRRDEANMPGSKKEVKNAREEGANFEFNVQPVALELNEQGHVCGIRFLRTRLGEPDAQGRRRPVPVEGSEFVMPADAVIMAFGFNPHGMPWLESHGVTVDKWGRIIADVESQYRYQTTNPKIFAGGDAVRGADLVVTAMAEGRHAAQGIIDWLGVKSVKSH
UniProt P45807: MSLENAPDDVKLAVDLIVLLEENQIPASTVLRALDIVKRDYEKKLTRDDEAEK
UniProt P39363: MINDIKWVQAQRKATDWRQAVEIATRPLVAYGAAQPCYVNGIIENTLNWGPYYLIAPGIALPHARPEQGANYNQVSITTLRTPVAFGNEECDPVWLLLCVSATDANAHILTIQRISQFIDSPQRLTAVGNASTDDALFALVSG
UniProt P45753: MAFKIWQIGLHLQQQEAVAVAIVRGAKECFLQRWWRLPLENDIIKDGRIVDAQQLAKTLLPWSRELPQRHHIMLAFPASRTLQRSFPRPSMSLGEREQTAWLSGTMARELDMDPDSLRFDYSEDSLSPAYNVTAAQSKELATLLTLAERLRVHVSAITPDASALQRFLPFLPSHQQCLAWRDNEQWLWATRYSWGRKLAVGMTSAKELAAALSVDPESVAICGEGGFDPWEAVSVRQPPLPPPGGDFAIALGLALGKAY
UniProt P37610: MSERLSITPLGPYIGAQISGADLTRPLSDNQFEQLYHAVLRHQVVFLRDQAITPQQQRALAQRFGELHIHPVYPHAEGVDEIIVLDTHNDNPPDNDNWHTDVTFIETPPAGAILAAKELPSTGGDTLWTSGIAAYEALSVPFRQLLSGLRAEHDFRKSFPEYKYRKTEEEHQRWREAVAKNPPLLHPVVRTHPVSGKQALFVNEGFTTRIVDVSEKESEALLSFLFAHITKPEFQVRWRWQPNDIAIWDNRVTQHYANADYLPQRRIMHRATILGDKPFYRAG
UniProt P37680: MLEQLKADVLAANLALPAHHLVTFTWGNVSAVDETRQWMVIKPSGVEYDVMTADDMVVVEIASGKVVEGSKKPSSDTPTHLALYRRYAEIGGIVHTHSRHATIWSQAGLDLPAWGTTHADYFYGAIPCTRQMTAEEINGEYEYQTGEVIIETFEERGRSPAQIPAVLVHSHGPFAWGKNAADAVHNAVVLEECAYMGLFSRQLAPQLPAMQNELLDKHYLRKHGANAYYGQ
UniProt P39337: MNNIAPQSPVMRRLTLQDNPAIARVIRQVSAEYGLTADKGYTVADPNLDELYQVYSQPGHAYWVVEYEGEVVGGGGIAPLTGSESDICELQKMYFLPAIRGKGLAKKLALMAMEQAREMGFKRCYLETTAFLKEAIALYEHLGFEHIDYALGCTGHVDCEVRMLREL
UniProt P39165: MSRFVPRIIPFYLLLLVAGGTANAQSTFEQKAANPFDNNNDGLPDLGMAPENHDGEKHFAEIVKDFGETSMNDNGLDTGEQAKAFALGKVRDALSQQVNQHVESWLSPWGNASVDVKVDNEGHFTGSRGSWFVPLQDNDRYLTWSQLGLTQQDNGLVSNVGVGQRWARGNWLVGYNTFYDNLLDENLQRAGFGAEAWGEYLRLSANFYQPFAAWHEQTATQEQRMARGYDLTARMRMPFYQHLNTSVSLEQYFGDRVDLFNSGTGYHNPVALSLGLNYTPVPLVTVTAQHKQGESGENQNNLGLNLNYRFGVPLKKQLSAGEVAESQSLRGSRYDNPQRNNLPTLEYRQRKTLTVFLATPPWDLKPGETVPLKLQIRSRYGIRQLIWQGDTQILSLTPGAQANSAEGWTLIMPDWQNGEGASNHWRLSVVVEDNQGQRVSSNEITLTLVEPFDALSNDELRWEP
UniProt P39389: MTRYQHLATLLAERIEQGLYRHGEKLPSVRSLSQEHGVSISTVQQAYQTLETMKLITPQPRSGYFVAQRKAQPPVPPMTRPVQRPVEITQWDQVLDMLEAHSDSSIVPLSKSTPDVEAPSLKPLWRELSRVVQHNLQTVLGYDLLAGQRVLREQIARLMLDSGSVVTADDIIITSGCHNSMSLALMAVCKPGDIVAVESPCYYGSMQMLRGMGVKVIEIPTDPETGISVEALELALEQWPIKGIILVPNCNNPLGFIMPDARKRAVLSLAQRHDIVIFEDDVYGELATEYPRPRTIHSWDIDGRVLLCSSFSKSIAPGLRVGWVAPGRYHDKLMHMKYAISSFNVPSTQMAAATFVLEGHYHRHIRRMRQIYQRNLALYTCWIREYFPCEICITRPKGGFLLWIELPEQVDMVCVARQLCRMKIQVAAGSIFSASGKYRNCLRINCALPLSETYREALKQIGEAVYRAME
UniProt P37025: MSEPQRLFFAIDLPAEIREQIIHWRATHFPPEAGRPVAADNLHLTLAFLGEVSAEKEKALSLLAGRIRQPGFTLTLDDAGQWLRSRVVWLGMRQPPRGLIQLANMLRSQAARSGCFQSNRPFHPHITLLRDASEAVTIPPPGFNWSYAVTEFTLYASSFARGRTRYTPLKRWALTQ
UniProt P45577: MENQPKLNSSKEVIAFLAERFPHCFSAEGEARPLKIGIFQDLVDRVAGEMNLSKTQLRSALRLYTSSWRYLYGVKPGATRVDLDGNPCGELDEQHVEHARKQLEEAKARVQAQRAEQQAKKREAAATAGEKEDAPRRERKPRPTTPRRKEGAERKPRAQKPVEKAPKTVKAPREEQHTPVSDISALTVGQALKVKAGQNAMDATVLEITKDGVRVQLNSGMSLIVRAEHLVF
UniProt P42593: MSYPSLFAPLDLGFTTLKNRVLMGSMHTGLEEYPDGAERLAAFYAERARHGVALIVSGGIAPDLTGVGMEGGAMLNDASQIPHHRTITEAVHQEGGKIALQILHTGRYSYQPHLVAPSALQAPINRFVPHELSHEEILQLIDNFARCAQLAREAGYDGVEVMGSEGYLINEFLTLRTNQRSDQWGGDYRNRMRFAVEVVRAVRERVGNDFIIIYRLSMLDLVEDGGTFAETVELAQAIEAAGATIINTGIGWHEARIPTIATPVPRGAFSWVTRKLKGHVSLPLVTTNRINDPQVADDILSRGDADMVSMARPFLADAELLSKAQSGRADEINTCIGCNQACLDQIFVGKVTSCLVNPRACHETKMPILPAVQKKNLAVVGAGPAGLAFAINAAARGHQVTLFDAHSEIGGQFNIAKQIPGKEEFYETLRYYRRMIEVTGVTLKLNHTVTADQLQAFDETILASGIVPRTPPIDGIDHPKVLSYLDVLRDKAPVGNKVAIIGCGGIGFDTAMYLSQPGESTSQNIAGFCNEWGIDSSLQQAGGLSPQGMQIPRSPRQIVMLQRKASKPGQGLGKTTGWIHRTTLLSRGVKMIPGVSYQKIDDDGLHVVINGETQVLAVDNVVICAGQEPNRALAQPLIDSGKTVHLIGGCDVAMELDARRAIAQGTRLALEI
UniProt P37147: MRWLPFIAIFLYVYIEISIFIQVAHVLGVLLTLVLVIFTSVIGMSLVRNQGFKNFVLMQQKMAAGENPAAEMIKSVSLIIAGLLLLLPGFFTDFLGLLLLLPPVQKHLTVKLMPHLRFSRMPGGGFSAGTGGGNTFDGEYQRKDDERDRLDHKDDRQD
UniProt P39279: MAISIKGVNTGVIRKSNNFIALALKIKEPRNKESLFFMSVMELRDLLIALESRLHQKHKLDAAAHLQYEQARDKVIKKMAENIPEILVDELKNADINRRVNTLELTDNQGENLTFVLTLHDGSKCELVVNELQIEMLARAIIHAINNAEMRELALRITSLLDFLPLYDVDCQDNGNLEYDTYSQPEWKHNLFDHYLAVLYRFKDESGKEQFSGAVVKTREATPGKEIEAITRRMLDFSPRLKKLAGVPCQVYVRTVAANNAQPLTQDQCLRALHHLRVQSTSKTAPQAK
UniProt P39384: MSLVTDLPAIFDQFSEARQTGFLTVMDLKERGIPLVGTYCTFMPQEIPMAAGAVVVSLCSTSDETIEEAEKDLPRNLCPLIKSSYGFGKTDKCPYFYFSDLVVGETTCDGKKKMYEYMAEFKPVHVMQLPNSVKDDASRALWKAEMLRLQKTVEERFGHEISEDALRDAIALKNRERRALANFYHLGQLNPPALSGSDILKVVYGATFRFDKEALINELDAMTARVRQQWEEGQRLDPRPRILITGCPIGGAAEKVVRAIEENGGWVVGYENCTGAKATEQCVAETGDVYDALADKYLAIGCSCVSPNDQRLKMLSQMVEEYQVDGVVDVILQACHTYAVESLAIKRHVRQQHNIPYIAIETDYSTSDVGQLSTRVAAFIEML
UniProt P37750: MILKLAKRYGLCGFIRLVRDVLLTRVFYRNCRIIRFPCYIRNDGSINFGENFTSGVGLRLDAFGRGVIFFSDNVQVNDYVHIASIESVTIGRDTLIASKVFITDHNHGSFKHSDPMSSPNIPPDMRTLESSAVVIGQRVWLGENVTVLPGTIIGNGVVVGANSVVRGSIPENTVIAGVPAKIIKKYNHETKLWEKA
UniProt P45468: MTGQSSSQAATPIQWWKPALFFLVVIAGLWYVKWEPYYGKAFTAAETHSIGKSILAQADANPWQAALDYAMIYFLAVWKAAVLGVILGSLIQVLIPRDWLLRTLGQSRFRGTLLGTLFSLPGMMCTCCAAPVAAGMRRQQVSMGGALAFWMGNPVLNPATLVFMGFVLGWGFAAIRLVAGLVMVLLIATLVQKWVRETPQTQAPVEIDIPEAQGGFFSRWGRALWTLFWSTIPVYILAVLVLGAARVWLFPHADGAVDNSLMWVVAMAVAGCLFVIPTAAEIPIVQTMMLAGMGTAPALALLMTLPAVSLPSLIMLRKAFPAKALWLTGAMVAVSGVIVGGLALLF
UniProt P42624: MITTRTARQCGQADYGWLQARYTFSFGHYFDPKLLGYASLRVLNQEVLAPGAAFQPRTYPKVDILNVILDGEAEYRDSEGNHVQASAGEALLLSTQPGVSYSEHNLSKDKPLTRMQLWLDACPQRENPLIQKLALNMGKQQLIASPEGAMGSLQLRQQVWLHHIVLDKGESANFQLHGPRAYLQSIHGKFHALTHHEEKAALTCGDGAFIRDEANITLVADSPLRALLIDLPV
UniProt P36999: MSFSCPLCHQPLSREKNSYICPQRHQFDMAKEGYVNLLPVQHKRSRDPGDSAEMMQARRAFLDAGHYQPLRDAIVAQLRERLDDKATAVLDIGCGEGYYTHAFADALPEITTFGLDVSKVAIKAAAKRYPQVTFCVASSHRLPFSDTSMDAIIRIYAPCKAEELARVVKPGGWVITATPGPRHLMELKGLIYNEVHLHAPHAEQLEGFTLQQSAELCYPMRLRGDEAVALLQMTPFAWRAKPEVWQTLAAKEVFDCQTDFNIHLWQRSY
UniProt P37690: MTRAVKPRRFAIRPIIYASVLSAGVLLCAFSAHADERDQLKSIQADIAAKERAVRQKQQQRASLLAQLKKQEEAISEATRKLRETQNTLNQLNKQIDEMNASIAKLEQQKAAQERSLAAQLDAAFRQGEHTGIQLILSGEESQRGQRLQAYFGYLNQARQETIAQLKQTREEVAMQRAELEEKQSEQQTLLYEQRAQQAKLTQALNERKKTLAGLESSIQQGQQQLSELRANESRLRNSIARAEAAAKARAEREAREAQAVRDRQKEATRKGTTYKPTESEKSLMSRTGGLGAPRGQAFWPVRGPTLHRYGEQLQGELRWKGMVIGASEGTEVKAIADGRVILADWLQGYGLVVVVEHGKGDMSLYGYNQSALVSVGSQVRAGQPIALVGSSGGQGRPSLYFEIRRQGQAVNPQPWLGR

Row | Target | log2 fold change
1 | UniProt P37326 (peptide sequence: EWYEHKK, peptide start residue: 99) | 0.526
2 | UniProt P37443 (peptide sequence: VALASASRYNAWR, peptide start residue: 682) | -0.0822
3 | UniProt P36879 (peptide sequence: LKSETFILDLAPK, peptide start residue: 227) | 0.203
4 | UniProt P37127 (peptide sequence: VEQMQATPARGEPDKLAIEAR, peptide start residue: 184) | -0.702
5 | UniProt P45807 (peptide sequence: LTRDDEAEK, peptide start residue: 45) | 0.0895
6 | UniProt P39363 (peptide sequence: ISQFIDSPQR, peptide start residue: 115) | 0.0125
7 | UniProt P45753 (peptide sequence: ELDMDPDSLR, peptide start residue: 109) | 0.158
8 | UniProt P39366 (peptide sequence: MLEQTALEHNIPVQR, peptide start residue: 282) | -0.367
9 | UniProt P37610 (peptide sequence: HQVVFLR, peptide start residue: 42) | 0.242
10 | UniProt P37680 (peptide sequence: YAEIGGIVHTHSR, peptide start residue: 87) | 0.231
11 | UniProt P39337 (peptide sequence: LALMAMEQAR, peptide start residue: 108) | 0.198
12 | UniProt P39165 (peptide sequence: NNLPTLEYR, peptide start residue: 340) | 0.149
13 | UniProt P37661 (peptide sequence: QGGAEDNPQR, peptide start residue: 305) | 0.485
14 | UniProt P39389 (peptide sequence: SGYFVAQR, peptide start residue: 62) | -0.155
15 | UniProt P34749 (peptide sequence: SLRELGVK, peptide start residue: 194) | 0.082
16 | UniProt P37025 (peptide sequence: EQIIHWR, peptide start residue: 19) | -0.857

Single values from the list:
UniProt P37443 (peptide sequence: VALASASRYNAWR, peptide start residue: 682) – log2 fold change: -0.0822
UniProt P39363 (peptide sequence: ISQFIDSPQR, peptide start residue: 115) – log2 fold change: 0.0125

(list continues)

Row | Target | log2 fold change
17 | UniProt P39265 (peptide sequence: KGIEDEAK, peptide start residue: 44) | 0.403
18 | UniProt P45577 (peptide sequence: VAGEMNLSK, peptide start residue: 46) | 0.101
19 | UniProt P39280 (peptide sequence: VQGAAHFMVSDDEAR, peptide start residue: 290) | -0.488
20 | UniProt P42593 (peptide sequence: TTGWIHR, peptide start residue: 575) | -0.411
21 | UniProt P37325 (peptide sequence: AAAAQQAGLK, peptide start residue: 79) | -0.755
22 | UniProt P37147 (peptide sequence: LDHKDDRQD, peptide start residue: 150) | -0.185
23 | UniProt P36677 (peptide sequence: HDDPQYQEVSRR, peptide start residue: 78) | -0.452
24 | UniProt P39279 (peptide sequence: LAGVPCQVYVR, peptide start residue: 244) | 0.139
25 | UniProt P39384 (peptide sequence: RALANFYHLGQLNPPALSGSDILK, peptide start residue: 178) | 0.248
26 | UniProt P37750 (peptide sequence: HSDPMSSPNIPPDMR, peptide start residue: 112) | -0.161
27 | UniProt P45468 (peptide sequence: AFTAAETHSIGK, peptide start residue: 41) | 0.0921
28 | UniProt P42624 (peptide sequence: LLGYASLR, peptide start residue: 34) | 0.125
29 | UniProt P39362 (peptide sequence: ALFSSSDYR, peptide start residue: 193) | -0.113
30 | UniProt P36999 (peptide sequence: NSYICPQRHQFDMAK, peptide start residue: 17) | -1.21
31 | UniProt P37690 (peptide sequence: SIQADIAAKER, peptide start residue: 42) | -0.477
